From patent publication EP1942187B1

Target: T1, mouse Zcytor19 (mouse) (UniProt Q8CGK5)
T1 sequence (looked up): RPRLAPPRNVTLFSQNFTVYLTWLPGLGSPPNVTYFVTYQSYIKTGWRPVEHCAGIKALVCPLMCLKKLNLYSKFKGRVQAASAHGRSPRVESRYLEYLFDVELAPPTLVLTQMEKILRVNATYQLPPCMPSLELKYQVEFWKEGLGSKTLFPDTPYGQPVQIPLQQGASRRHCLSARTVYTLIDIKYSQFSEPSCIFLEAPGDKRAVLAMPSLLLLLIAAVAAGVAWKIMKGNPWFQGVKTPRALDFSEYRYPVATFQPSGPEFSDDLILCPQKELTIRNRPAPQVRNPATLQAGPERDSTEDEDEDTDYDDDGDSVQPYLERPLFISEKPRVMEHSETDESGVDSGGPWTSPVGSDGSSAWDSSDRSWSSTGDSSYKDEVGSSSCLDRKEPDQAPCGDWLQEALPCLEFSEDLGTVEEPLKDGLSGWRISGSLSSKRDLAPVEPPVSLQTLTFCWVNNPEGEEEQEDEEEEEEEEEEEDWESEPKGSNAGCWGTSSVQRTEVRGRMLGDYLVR
Test: secretion trap (further experiments)

Substance: biotinylated zcyto21CEE (ligand)
- binding: binds

No constants are given. Whether binding was seen depends on the method and setting. A result given as binding can be weak or reduced; the word gives no strength.
